Data source: PubChem BioAssay AID504793 (Drosophila RNAi Screening Center, 2011)
In all, the deposit lists about 23,000 reagents; shown is an unselected part of those that have a named target and a result. In the full data, 62 (0.27%) were called active. 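Calls come from follow-up tests whose scores are not deposited, so confirmed genes may have low counts here; counts are not normalised per plate.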 The raw values are shown without normalisation. Names joined by + are all predicted targets of the reagent. No sequences are given here.

- Aim: 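Genes required for cells to halt at G2/M after double-strand DNA breaks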 (primary screen)
- Cell system: Drosophila S2R+ cells
- Reagent: long dsRNA against Drosophila genes, about 0.25 µg dsRNA per well
- Timing: 4 days of dsRNA, then 4 hours of drug before read-out
- Challenge: doxorubicin 0.5 µM for 4 hours to cause double-strand breaks, in cells also given a low, harmless dose of dsRNA against nbs to sensitise the assay
- Read-out: 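Mitotic index as the number of phospho-histone H3-positive cells in each well following doxorubicin, given as raw counts without normalisation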
- Direction: mitotic cells: higher = more cells in mitosis, weaker G2 arrest
- Rule for the call: 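a call needs confirmation in secondary tests, with other dsRNAs and a check of mitotic timing without damage, not just a high primary count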
- Calls: active = confirmed in follow-up tests; inactive = not confirmed

no.	predicted target	amplicon	mitotic cells, replicate 1	mitotic cells, replicate 2	outcome
1	sloth2 + sloth1	DRSC17922	17		inactive
2	sloth2 + sloth1	DRSC17923	7		inactive
3	SmydA-9	DRSC17814	10		inactive
4	Ork1	DRSC20266	6		inactive
5	Slc25A46b	DRSC02888	5		inactive
6	SMSr	DRSC10998	7		inactive
7	SMSr	DRSC10999	4		inactive
8	CG14036	DRSC02361	4		inactive
9	tgy	DRSC20045	3		inactive
10	Cadps	DRSC22200	9		inactive
11	Cadps	DRSC29264	10		inactive
12	pkm	DRSC19674			inactive
13	pkm	DRSC29050	6		inactive
14	CG42446 + CG17931	DRSC28824	3		inactive
15	Reph	DRSC00634	5		inactive
16	Reph	DRSC22031	13		inactive
17	Reph	DRSC29417	4		inactive
18	mael	DRSC11894	6		inactive
19	CG12133	DRSC06108	1		inactive
20	CG12133	DRSC25602	7		inactive
21	Mmp1	DRSC04493	9		inactive
22	CG6665	DRSC07006	7		inactive
23	CG7724	DRSC10905	7		inactive
24	CG6083	DRSC10580	6		inactive
25	CG6083	DRSC24586	11		inactive
26	Hs3st-B	DRSC20067	7		inactive
27	CG15107	DRSC23406	8		inactive
28	Cul5	DRSC14723	17		inactive
29	AP-2alpha	DRSC00800	6		inactive
30	AP-2alpha	DRSC27715	5		inactive
31	tomboy20	DRSC14913	4		inactive
32	CG9926	DRSC16582	2		inactive
33	CG9926	DRSC29175	5		inactive
34	FIG4	DRSC00515	7		inactive
35	CG30440	DRSC04775	4		inactive
36	CG30440	DRSC04845	3		inactive
37	CG30440	DRSC04855	7		inactive
38	fog	DRSC20646	6		inactive
39	Sdb	DRSC06272	8		inactive
40	Sdb	DRSC06273	7		inactive
41	Sdb	DRSC07155	5		inactive
42	CG42505 + CG42504 + CG31358	DRSC15235	6		inactive
43	CG42505 + CG42504 + CG31358	DRSC15308	5		inactive
44	CG42505 + CG42504 + CG31358	DRSC15309	5		inactive
45	CG12112	DRSC17809	5		inactive
46	CG15127	DRSC05802	12		inactive
47	CG15127	DRSC06549	7		inactive
48	Prat	DRSC16797	8		inactive
49	Cyp313b1	DRSC16629	6		inactive
50	Rab9	DRSC03281	7		inactive
51	phr6-4	DRSC03589	5		inactive
52	phr6-4	DRSC26873	4		inactive
53	Gr36b	DRSC21637	2		inactive
54	Gr36b	DRSC29818			inactive
55	CR33315	DRSC22947	12		inactive
56	CR33315	DRSC27669	3		inactive
57	b	DRSC03487	3		inactive
58	b	DRSC28837	10		inactive
59	Calr	DRSC16614	4		inactive
60	Calr	DRSC29891	11		inactive
61	E23	DRSC00593	4		inactive
62	E23	DRSC25491	2		inactive
63	Sos	DRSC03439	8		inactive
64	Sos	DRSC23624	9		inactive
65	Sos	DRSC39141	6		inactive
66	Acp98AB (retired record)	DRSC21837	12		inactive
67	Adf1	DRSC04941	15		inactive
68	Adf1	DRSC04963	11		inactive
69	CG31897	DRSC01020	11		inactive
70	CG10991 (retired record)	DRSC12156	6		inactive
71	Acat2	DRSC08630	10		inactive
72	Argl + CG9515	DRSC03243	3		inactive
73	Argl + CG9515	DRSC03245	3		inactive
74	Or49a	DRSC07493	5		inactive
75	mAChR-C	DRSC17890	19		inactive
76	mAChR-C	DRSC27441	5		inactive
77	CG42733	DRSC25375	5		inactive
78	Fatp2	DRSC03971	7		inactive
79	Fatp2	DRSC04178	5		inactive
80	Fatp2	DRSC04330	8		inactive
81	CG5646	DRSC15853	5		inactive
82	CG5646	DRSC29759	9		inactive
83	Tpst	DRSC18989	14		inactive
84	Tpst	DRSC19696	12		inactive
85	Tpst	DRSC19723	10		inactive
86	Tpst	DRSC24990	4		inactive
87	Tpst	DRSC25122	10		inactive
88	Tpst	DRSC25422	10		inactive
89	ref(2)P	DRSC03601	4		inactive
90	CG13771	DRSC02277	4		inactive
91	okr	DRSC00834	5		inactive
92	okr	DRSC24838	4		inactive
93	CG31686 (retired record)	DRSC00102	6		inactive
94	CG31686 (retired record)	DRSC29852	3		inactive
95	kappaB-Ras + CG30503	DRSC06619	10		inactive
96	kappaB-Ras + CG30503	DRSC07636	4		inactive
97	kappaB-Ras + CG30503	DRSC25537	9		inactive
98	CG13901	DRSC08371	9		inactive
99	CG34057	DRSC08375	6		inactive
100	CG42240	DRSC18097	8		inactive
101	CG42240	DRSC30017	9		inactive
102	Trxr1	DRSC18668	11		inactive
103	Trxr1	DRSC22293	10		inactive
104	Trxr1	DRSC25749	47		inactive
105	Wdr33	DRSC12162	7		inactive
106	Wdr33	DRSC27065	5		inactive
107	Idgf3	DRSC03351	6		inactive
108	Cyp313a5	DRSC16628	9		inactive
109	CG31220	DRSC22248	13		inactive
110	CG31220	DRSC24492	6		inactive
111	CG15533	DRSC15069	7		inactive
112	CG15533	DRSC30031	6		inactive
113	DIP-theta	DRSC00885	4	13	inactive
114	DIP-theta	DRSC02340	2		inactive
115	CG14185	DRSC10184	8		inactive
116	ninaE	DRSC17014	14		inactive
117	ninaE	DRSC25724	4		inactive
118	Rab39	DRSC17827	5		inactive
119	Prtl99C	DRSC15049	5		inactive
120	E(spl)mdelta-HLH	DRSC16698	12		inactive
121	Ugt35D1	DRSC15107	8		inactive
122	CG14568	DRSC11729	1		inactive
123	CG34159	DRSC23222	13		inactive
124	Prp3	DRSC10912	3		inactive
125	CG4372	DRSC04466	5		inactive
126	ClC-a	DRSC14947	14		inactive
127	ClC-a	DRSC14948	4		inactive
128	ClC-a	DRSC16142	10		inactive
129	Syn	DRSC16876	5		inactive
130	Syn	DRSC26448	9		inactive
131	rho-5	DRSC02847	10		inactive
132	rho-5	DRSC26239	9		inactive
133	SPARC	DRSC14123	11		inactive
134	SPARC	DRSC26381	4		inactive
135	CG11771	DRSC14379	12		inactive
136	CG11771	DRSC27732	5		inactive
137	RfC3	DRSC03411	7		inactive
138	CG13426	DRSC06388	8		inactive
139	CG32109	DRSC09816	6		inactive
140	CG4596	DRSC15608	5		inactive
141	CG4596	DRSC25914	5		inactive

Part of the list above, reformatted.
Tpst [DRSC25422]
- mitotic cells, replicate 1: 10
- outcome: inactive

ref(2)P [DRSC03601]
- mitotic cells, replicate 1: 4
- outcome: inactive

CG13771 [DRSC02277]
- mitotic cells, replicate 1: 4
- outcome: inactive

okr [DRSC00834]
- mitotic cells, replicate 1: 5
- outcome: inactive

okr [DRSC24838]
- mitotic cells, replicate 1: 4
- outcome: inactive

CG31686 (retired record) [DRSC00102]
- mitotic cells, replicate 1: 6
- outcome: inactive

CG31686 (retired record) [DRSC29852]
- mitotic cells, replicate 1: 3
- outcome: inactive

kappaB-Ras + CG30503 [DRSC06619]
- mitotic cells, replicate 1: 10
- outcome: inactive

kappaB-Ras + CG30503 [DRSC07636]
- mitotic cells, replicate 1: 4
- outcome: inactive

kappaB-Ras + CG30503 [DRSC25537]
- mitotic cells, replicate 1: 9
- outcome: inactive
